Some of the results follow.
The targets below were run with Cc1cn(-c2cc(NC(=O)c3ccc(C)c(Nc4nccc(-c5cccnc5)n4)c3)cc(C(F)(F)F)c2)cn1 [nilotinib] (assay: log2 fold change, soluble protein after heating vs DMSO (PISA); higher = thermal stabilisation; K562 lysate, 10 uM; active = over 0.2 and 3.5 SD of the protein, either way, in both replicates (recomputed)).
Method in brief: (§1)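 Dounce homogenisation of K562 pellets in PBS pH 7.4 with 1 mM MgCl2 produced a crude extract, used at 1 mg/mL protein. Exposure to 10 μM compound lasted 30 min, and aliquots were then heated for 3 min across 48°C-58°C, pooled and brought to 0.5% NP-40 at 4°C. The supernatant after 21,000xg for 90 min was quantified by TMTpro 16plex LC-MS/MS with channel sums equalised. Duplicate values are given as log-two fold change in thermal stability relative to solvent controls.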

Chains of the proteins cited; added tags and fusions are not shown. Lines headed by an entry give the natural chain unless they say otherwise; changes in a name come on top.
UniProt P25205: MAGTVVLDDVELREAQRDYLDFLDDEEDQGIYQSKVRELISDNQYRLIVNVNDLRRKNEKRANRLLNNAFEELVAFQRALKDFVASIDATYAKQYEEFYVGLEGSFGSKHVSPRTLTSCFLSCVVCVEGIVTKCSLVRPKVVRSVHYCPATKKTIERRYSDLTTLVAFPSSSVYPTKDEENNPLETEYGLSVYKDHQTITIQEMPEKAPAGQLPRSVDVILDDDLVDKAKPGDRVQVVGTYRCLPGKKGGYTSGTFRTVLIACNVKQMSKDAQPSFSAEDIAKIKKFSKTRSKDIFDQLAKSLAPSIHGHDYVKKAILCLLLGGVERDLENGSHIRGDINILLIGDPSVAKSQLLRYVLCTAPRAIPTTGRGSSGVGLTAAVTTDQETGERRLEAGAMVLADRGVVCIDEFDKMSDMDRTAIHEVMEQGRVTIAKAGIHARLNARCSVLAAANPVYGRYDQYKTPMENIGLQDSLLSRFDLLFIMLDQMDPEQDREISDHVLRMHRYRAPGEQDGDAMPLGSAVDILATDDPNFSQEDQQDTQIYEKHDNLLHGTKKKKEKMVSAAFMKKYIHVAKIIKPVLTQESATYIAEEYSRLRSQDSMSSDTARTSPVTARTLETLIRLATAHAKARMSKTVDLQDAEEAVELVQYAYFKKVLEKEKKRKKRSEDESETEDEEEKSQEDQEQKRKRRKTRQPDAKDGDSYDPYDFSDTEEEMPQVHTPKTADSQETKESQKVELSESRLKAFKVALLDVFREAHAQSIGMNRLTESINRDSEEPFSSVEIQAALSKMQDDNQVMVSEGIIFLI
UniProt Q96N66: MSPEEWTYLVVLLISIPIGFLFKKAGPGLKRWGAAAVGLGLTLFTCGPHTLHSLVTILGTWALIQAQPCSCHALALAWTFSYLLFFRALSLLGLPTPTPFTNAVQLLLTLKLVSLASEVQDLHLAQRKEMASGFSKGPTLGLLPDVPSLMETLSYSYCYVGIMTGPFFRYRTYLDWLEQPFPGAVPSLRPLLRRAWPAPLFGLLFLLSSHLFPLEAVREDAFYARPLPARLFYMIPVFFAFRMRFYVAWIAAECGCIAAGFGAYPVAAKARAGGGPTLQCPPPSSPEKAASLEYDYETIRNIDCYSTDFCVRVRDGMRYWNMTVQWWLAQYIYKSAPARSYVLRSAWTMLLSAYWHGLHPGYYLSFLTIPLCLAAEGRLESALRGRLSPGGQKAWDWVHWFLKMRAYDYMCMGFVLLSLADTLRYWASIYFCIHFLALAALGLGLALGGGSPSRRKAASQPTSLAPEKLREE
UniProt Q06413, whole entry, looked up: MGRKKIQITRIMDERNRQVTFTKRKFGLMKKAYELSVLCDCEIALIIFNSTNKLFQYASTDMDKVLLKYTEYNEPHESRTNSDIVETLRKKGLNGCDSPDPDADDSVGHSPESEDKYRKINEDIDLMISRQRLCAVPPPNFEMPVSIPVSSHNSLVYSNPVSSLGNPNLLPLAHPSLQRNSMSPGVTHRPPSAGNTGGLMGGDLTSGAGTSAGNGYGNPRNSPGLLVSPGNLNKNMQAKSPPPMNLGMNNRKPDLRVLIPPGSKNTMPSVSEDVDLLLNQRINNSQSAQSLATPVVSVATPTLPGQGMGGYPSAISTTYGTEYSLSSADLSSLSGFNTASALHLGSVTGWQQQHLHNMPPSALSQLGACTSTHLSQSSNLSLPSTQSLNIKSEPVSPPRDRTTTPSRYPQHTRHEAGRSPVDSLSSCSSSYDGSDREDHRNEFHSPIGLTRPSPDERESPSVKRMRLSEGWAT
UniProt Q9ULC4: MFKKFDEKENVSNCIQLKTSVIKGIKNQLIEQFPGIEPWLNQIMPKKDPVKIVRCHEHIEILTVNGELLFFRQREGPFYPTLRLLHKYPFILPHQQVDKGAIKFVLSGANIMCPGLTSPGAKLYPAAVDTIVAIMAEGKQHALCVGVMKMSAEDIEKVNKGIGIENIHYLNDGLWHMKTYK
UniProt Q6UB28: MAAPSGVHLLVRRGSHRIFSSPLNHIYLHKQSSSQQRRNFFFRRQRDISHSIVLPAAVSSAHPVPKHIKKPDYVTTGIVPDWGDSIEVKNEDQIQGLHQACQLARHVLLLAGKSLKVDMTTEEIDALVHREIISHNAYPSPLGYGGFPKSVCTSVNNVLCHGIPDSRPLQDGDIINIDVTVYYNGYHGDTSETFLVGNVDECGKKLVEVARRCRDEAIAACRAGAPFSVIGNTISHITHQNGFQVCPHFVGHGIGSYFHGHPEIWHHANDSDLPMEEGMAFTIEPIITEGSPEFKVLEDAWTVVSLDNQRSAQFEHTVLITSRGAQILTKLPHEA
UniProt O75448: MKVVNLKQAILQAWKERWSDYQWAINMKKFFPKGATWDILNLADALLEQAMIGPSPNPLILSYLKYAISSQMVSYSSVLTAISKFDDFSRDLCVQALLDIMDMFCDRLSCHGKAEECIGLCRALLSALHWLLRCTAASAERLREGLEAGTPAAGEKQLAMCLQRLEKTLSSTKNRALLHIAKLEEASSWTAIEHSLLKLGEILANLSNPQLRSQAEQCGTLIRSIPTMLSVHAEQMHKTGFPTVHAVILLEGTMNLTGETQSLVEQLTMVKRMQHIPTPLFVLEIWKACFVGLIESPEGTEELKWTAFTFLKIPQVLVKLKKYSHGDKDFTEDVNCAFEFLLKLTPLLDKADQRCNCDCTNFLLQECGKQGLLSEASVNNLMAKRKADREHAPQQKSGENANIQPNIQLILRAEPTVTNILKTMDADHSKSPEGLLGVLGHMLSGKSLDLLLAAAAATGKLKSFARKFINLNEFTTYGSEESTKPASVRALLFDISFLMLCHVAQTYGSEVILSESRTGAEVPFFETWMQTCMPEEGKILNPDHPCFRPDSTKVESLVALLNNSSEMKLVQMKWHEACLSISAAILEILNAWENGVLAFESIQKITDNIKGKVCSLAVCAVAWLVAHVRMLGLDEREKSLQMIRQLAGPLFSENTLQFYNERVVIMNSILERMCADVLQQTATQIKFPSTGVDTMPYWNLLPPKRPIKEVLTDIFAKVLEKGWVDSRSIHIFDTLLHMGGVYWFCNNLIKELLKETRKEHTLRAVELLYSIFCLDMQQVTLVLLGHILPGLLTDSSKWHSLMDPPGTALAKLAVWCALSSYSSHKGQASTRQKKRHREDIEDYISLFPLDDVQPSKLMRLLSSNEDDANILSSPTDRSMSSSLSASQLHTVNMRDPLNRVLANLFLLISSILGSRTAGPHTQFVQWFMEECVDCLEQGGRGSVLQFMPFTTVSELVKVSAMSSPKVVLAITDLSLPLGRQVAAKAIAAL
UniProt Q9NWA0: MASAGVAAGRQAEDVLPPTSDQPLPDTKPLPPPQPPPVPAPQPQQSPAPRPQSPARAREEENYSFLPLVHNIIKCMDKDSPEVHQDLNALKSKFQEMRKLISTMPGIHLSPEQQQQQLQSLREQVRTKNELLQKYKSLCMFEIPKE
UniProt Q9H3U5: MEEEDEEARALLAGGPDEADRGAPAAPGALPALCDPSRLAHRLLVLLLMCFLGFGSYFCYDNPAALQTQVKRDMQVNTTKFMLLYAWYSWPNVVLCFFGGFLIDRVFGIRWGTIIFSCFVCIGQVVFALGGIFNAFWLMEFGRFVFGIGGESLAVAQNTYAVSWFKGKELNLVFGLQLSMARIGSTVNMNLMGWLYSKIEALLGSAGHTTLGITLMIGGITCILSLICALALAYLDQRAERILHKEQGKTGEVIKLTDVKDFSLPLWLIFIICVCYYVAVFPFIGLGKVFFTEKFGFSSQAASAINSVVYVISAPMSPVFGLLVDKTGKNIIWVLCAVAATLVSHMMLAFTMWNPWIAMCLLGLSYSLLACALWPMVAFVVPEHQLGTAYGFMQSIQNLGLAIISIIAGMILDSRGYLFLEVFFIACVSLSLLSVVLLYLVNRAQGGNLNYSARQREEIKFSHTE
UniProt O95568: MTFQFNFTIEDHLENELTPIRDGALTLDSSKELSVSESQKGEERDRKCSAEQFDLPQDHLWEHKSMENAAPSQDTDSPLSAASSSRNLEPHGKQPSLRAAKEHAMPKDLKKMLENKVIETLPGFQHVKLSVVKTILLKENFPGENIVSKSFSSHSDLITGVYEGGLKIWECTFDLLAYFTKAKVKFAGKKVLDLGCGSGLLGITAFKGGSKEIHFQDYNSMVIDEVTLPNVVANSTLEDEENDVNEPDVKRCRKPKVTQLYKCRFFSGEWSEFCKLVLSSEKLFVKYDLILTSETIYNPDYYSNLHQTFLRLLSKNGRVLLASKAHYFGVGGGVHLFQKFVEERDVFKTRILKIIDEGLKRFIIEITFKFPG
UniProt O95140: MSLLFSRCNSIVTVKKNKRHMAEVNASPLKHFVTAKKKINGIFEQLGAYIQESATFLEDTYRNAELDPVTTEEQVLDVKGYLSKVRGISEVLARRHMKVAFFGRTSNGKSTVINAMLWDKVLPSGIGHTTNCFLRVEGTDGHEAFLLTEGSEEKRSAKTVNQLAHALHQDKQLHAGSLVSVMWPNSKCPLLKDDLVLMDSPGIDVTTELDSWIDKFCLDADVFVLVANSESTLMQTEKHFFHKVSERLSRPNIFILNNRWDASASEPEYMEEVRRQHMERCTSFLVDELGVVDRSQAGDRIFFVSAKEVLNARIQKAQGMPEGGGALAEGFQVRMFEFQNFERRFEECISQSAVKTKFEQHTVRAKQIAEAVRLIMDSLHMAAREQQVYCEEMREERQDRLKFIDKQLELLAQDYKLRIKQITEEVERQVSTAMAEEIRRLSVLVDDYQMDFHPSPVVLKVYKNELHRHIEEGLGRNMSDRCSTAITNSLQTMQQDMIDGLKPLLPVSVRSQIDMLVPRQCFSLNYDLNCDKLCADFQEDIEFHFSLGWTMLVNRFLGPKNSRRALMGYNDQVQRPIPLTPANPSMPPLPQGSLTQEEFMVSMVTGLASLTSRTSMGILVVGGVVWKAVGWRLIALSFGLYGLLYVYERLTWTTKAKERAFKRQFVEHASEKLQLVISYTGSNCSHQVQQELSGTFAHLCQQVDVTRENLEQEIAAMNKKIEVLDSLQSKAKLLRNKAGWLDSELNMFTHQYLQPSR
UniProt O95983: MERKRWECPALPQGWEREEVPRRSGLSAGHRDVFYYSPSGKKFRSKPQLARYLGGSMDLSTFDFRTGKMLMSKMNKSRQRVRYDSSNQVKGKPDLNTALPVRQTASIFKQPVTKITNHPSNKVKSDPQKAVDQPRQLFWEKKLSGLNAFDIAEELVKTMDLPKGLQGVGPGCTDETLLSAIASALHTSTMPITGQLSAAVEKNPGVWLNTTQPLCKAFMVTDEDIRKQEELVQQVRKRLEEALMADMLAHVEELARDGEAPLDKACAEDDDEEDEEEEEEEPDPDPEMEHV
UniProt P43121, whole entry, looked up: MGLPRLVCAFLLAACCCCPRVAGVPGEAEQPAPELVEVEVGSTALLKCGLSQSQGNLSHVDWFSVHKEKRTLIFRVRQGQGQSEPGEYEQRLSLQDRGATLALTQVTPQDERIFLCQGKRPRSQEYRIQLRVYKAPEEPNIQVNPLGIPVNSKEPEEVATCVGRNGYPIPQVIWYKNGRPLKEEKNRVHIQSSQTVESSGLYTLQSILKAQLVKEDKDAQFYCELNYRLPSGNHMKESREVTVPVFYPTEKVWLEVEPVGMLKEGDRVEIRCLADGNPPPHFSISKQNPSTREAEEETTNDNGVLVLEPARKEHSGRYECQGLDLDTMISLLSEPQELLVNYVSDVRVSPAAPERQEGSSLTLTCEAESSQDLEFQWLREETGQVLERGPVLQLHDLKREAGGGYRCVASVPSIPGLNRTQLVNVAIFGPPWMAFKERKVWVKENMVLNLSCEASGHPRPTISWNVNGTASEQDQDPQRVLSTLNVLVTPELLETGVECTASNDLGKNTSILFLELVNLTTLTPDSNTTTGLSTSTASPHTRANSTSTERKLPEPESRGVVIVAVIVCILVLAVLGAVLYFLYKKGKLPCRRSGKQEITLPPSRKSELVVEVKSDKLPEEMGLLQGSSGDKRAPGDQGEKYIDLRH
UniProt Q86U44, whole entry, looked up: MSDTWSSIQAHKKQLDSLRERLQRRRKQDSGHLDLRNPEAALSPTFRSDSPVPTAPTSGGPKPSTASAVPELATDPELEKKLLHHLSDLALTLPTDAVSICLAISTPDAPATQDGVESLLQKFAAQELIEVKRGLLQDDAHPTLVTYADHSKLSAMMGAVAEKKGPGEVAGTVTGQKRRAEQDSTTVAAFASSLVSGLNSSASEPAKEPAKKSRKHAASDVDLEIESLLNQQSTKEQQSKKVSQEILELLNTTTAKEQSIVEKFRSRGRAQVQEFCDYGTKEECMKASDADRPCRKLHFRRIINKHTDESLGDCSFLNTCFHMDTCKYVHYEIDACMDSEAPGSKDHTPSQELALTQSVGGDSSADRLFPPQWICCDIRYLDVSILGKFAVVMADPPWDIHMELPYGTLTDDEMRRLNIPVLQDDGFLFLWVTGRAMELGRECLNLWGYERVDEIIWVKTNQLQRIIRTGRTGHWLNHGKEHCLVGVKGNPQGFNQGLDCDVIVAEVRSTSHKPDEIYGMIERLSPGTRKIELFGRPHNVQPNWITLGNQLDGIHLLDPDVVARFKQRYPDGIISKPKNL

log2 fold change, inactive:
MCM3 isoform 2 (UniProt P25205) -0.011
MBLAC2 (UniProt Q68D91) 0.028
MFF isoform 2 (UniProt Q9GZY8) -0.025
MED15 (UniProt Q96RN5) -0.05
MBD4 (UniProt O95243) 0.073
MBOAT7 (UniProt Q96N66) -0.001
MEF2C isoform 2 (UniProt Q06413) -0.012
MED20 (UniProt Q9H944) 0.038
MDC1 (UniProt Q14676) 0.019
MCTS1 isoform 3 (UniProt Q9ULC4) -0.001
MDH2 (UniProt P40926) -0.005
MDN1 (UniProt Q9NU22) 0.031
METAP1D (UniProt Q6UB28) 0.02
MEF2C isoform 5 (UniProt Q06413) -0.183
METTL14 (UniProt Q9HCE5) 0.016
MED24 (UniProt O75448) 0.023
MCCC1 (UniProt Q96RQ3) -0.025
MFSD4B (UniProt Q5TF39) 0.093
MEA1 (UniProt Q16626) -0.006
MED9 (UniProt Q9NWA0) -0.251
MBIP (UniProt Q9NS73) 0.045
MED12 isoform 2 (UniProt Q93074) -0.017
MFSD1 isoform 6 (UniProt Q9H3U5) 0.232
MEN1 (UniProt O00255) 0.287
METTL18 (UniProt O95568) -0.027
MFN2 (UniProt O95140) 0.046
MEPCE (UniProt Q7L2J0) 0.011
MCAT (UniProt Q8IVS2) 0.051
MBD3 (UniProt O95983) 0.011
MDH1 isoform 3 (UniProt P40925) 0.001
MCAM (UniProt P43121) 0.028
MATR3 (UniProt P43243) -0.003
MDP1 (UniProt Q86V88) -0.012
MEX3D isoform 3 (UniProt Q86XN8) -0.011
MCU (UniProt Q8NE86) -0.044
METTL3 (UniProt Q86U44) -0.013
MCUR1 (UniProt Q96AQ8) -0.05
MED28 (UniProt Q9H204) 0.053
METAP1 (UniProt P53582) 0.016

What follows are targets tested with Cc1nc(Nc2n[nH]c3c2CN(C(=O)N[C@H](CN(C)C)c2ccccc2)C3(C)C)c2sccc2n1 in the same assay as above.
Method in brief: as §1

log2 fold change, inactive:
MCM3 isoform 2 (UniProt P25205) -0.005
MBLAC2 (UniProt Q68D91) -0.076
MFF isoform 2 (UniProt Q9GZY8) -0.039
MED15 (UniProt Q96RN5) 0.08
MBD4 (UniProt O95243) -0.129
MBOAT7 (UniProt Q96N66) -0.021
MEF2C isoform 2 (UniProt Q06413) -0.088
MED20 (UniProt Q9H944) -0.022
MDC1 (UniProt Q14676) -0.037
MCTS1 isoform 3 (UniProt Q9ULC4) 0.019
MDH2 (UniProt P40926) 0.007
MDN1 (UniProt Q9NU22) -0.006
METAP1D (UniProt Q6UB28) -0.055
MEF2C isoform 5 (UniProt Q06413) 0.018
METTL14 (UniProt Q9HCE5) -0.039
MED24 (UniProt O75448) 0.014
MCCC1 (UniProt Q96RQ3) 0.002
MFSD4B (UniProt Q5TF39) -0.089
MEA1 (UniProt Q16626) -0.007
MED9 (UniProt Q9NWA0) 0.065
MBIP (UniProt Q9NS73) -0.021
MED12 isoform 2 (UniProt Q93074) -0.025
MFSD1 isoform 6 (UniProt Q9H3U5) 0.045
MEN1 (UniProt O00255) -0.208
METTL18 (UniProt O95568) 0.034
MFN2 (UniProt O95140) -0.056
MEPCE (UniProt Q7L2J0) 0.001
MCAT (UniProt Q8IVS2) 0.005
MBD3 (UniProt O95983) -0.007
MDH1 isoform 3 (UniProt P40925) 0.013
MCAM (UniProt P43121) -0.008
MATR3 (UniProt P43243) -0.009
MDP1 (UniProt Q86V88) 0.061
MEX3D isoform 3 (UniProt Q86XN8) 0.066
MCU (UniProt Q8NE86) 0.012
METTL3 (UniProt Q86U44) 0.022
MCUR1 (UniProt Q96AQ8) -0.008
MED28 (UniProt Q9H204) 0.053
METAP1 (UniProt P53582) -0.022

Reference: the supplement of paper PMC10849652
